From patent US20100152102A1, “USE OF SO[…] ONE OF ITS ANALOGUES FOR PREPARING A […] TO REGULATE THE OVARIAN […] IN NON-[…]” (Preglem S.A., priority 2003, published 2010)
For at least one compound, name, drawing or mass did not settle the structure.

Tested on: primordial follicles of ewe ovarian cortex
Assay: culture of ovarian cortex fragments of adult ewes for 10 days
Assay type: cell-based
Conditions: SST14 10^−9 M to 10^−6 M
Procedure: Ovaries of adult ewes are collected immediately after slaughter. The ovaries are placed in an organ transport medium without serum (X-vivo, Bio Whittaker, Walkersville, Md., USA) at 10° C. and transported to the laboratory. Approximately 1 h after removal, the cortex is isolated from the medulla then fractionated into slices of 2 mm thickness (1 cm^2, average weight of 212 mg) after rinsing in new X-vivo. The cortex fragments are cultured in an oven under 5% oxygen for 10 days in well plates in the presence of DMEM. The medium is changed every 2 days.
The procedure used is the same as for Example 1, except that the somatostatin is replaced with one of its agonist analogues, namely the synthetic peptide of formula c[Tic-Tyr-DTrp-Lys-Abu-Phe] (hereafter AG1 peptide).
The procedure used is the same as for Example 1, except that the somatostatin is replaced by one of its antagonist analogues, namely the synthetic peptide of formula Cpa-c(DCys-3-Pal-DTrp-NMeLys-Thr-Cys)-2-Nal-NH2 (hereafter ANT1 peptide).

With `C[C@H](N)C(=O)NCC(=O)N[C@H]1CSSC[C@@H](C(=O)O)NC(=O)[C@H](CO)NC(=O)[C@H]([C@@H](C)O)NC(=O)[C@H](Cc2ccccc2)NC(=O)[C@H]([C@@H](C)O)NC(=O)[C@H](CCCCN)NC(=O)[C@H](Cc2c[nH]c3ccccc23)NC(=O)[C@H](Cc2ccccc2)NC(=O)[C@H](Cc2ccccc2)NC(=O)[C@H](CC(N)=O)NC(=O)[C@H](CCCCN)NC1=O` [SST14] the “start of growth of the primordial follicles” value (10 days culture (D0, D4, D7, D10), vs control without SST, FIG. 1 and 2) was “very significantly inhibits”, the “number of primordial follicles” value (10 days culture, FIG. 1) was “maintenance over time” and the “number of primary follicles” value (10 days culture, FIG. 2) was “absence of increase”.
